Results deposited as PubChem BioAssay AID1259308 (NCATS, 2017)
Assay: 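Knock-downs that increase output of a recombinant reporter protein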 (primary screen). System: human HEK293 embryonic kidney cells stably expressing firefly luciferase (HEK-CMV-Luc2-Hygro). Reagent: single siRNA against human genes, 0.8 pmol siRNA per well. Duration: 72 h. Detection: 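Reporter luminescence and viable-cell signal on separate replicate plates, given as percent of non-targeting control and median/MAD z-scores, plus per-cell luciferase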. Reading the numbers: total luciferase, z-score and total luciferase, % of control: higher = more reporter protein produced. Call rule: 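Active when the median/MAD z-score for overall luciferase is greater than 3; a gene was taken forward for validation with new siRNAs if at least two of its three siRNAs passed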. Calls: active = raised luciferase; inactive = no rise.
Shown is a random part of about 59,000 reagents tested. About 1,510 of all reagents (2.6%) count as active. 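Calls use total luciferase alone and ignore viability, so some active siRNAs may act by altering cell number.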 The numbers tell different reagents against one gene apart. Not all columns of the deposit are shown. No sequences are given here.

The opening 2 records as a preview:
Target gene | reagent no. | total luciferase, z-score | total luciferase, % of control | Outcome
OR1J1 | 1 | -1.34 | 55.3 | inactive
OR1J1 | 2 | -0.474 | 72.5 | inactive

The list itself, from the first entry:
Target gene | reagent no. | total luciferase, z-score | total luciferase, % of control | Outcome
OR1J1 | 1 | -1.34 | 55.3 | inactive
OR1J1 | 2 | -0.474 | 72.5 | inactive
OR1J1 | 3 | 1.23 | 106 | inactive
MPPE1 | 1 | -1.54 | 51.3 | inactive
MPPE1 | 2 | -0.343 | 75.1 | inactive
MPPE1 | 3 | 2.23 | 126 | inactive
PGAP3 | 1 | 2.99 | 141 | inactive
PGAP3 | 2 | -0.56 | 70.7 | inactive
PGAP3 | 3 | -0.58 | 70.3 | inactive
DNAJC30 | 1 | -1.32 | 55.6 | inactive
DNAJC30 | 2 | 0.312 | 88.1 | inactive
DNAJC30 | 3 | -0.274 | 76.4 | inactive
ACYP2 | 1 | 0.449 | 90.8 | inactive
ACYP2 | 2 | -0.415 | 73.6 | inactive
ACYP2 | 3 | 1.16 | 105 | inactive
CAPS2 | 1 | -0.489 | 72.2 | inactive
CAPS2 | 2 | 0.205 | 86 | inactive
CAPS2 | 3 | 0.246 | 86.8 | inactive
DNASE1L1 | 1 | 0.519 | 92.2 | inactive
DNASE1L1 | 2 | -0.693 | 68.1 | inactive
DNASE1L1 | 3 | 2.82 | 138 | inactive
NETO1 | 1 | -1.35 | 55.1 | inactive
NETO1 | 2 | 1.2 | 106 | inactive
NETO1 | 3 | 0.951 | 101 | inactive
